PubChem BioAssay AID1259264, Sanger Institute, 2017
Aim: 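Kinase-wide knock-down to find genes that strengthen targeted drug effects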 (primary screen). Cell system: CL40 human colorectal cancer cells. Reagent: siRNA pool against human genes. Challenge: DMSO, or an anchor drug: BYL719 at 1 µM, cetuximab at 5 µg/ml, or trametinib at 10 nM. Measurement: 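Viability as a fraction of non-targeting pool control (replicates averaged), control-based robust z-score, plus averaged synergy for each drug: BYL719 1 µM, cetuximab 5 µg/ml, trametinib 10 nM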. Direction: robust z-score, siRNA alone and viability, siRNA alone: higher = more viable cells. Units: viability, siRNA alone in fraction of control. Active means: 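a gene counts as essential when knock-down without drug gives a robust z-score below -3, meaning fewer cells; synergy scores play no part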. Calls: active = essential (lowers viability alone); inactive = not essential.
In all, the deposit lists 794 reagents; shown is an unselected part. 15 of all reagents (1.9%) were called active. 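Calls rest on knock-down alone at z-score below -3; synergy scores with the three drugs do not decide them.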 A number with no mark means an inactive call. No viability above 1 is reported: the scale is capped. Further read-outs or replicates are left out here. The record does not give: the amount of reagent, the time to read-out.

PRKCB | robust z-score, siRNA alone = 0.539; viability, siRNA alone = 1
IRAK3 | robust z-score, siRNA alone = -1.6; viability, siRNA alone = 0.847
KALRN | robust z-score, siRNA alone = 0.539; viability, siRNA alone = 1
MAP2K5 | robust z-score, siRNA alone = 0.539; viability, siRNA alone = 1
TESK1 | robust z-score, siRNA alone = 0.539; viability, siRNA alone = 1
CDK10 | robust z-score, siRNA alone = -0.442; viability, siRNA alone = 0.93
PAK4 | robust z-score, siRNA alone = 0.539; viability, siRNA alone = 1
BUB1 | robust z-score, siRNA alone = -0.663; viability, siRNA alone = 0.914
MAP2K6 | robust z-score, siRNA alone = 0.539; viability, siRNA alone = 1
AKT1 | robust z-score, siRNA alone = 0.0177; viability, siRNA alone = 0.963
CAMKK1 | robust z-score, siRNA alone = 0.28; viability, siRNA alone = 0.981
MAGI1 | robust z-score, siRNA alone = -0.222; viability, siRNA alone = 0.945
DLG3 | robust z-score, siRNA alone = 0.539; viability, siRNA alone = 1
ADCK5 | robust z-score, siRNA alone = 0.323; viability, siRNA alone = 0.985
NPR2 | robust z-score, siRNA alone = 0.225; viability, siRNA alone = 0.977
CDKL5 | robust z-score, siRNA alone = -0.698; viability, siRNA alone = 0.911
PI4KA | robust z-score, siRNA alone = 0.539; viability, siRNA alone = 1
TNK2 | robust z-score, siRNA alone = 0.539; viability, siRNA alone = 1

Sorted by “viability, siRNA alone” (lowest first): 3 of the entries above.
CDKL5 | robust z-score, siRNA alone = -0.698; viability, siRNA alone = 0.911
NPR2 | robust z-score, siRNA alone = 0.225; viability, siRNA alone = 0.977
PI4KA | robust z-score, siRNA alone = 0.539; viability, siRNA alone = 1

Additional reagents:
STKLD1 | robust z-score, siRNA alone = -1.54; viability, siRNA alone = 0.851
SRPK3 | robust z-score, siRNA alone = -0.382; viability, siRNA alone = 0.934
EFNB3 | robust z-score, siRNA alone = -2.09; viability, siRNA alone = 0.812
TTBK2 | robust z-score, siRNA alone = -1.55; viability, siRNA alone = 0.851
BMX | robust z-score, siRNA alone = 0.0659; viability, siRNA alone = 0.966
IGF2R | robust z-score, siRNA alone = -0.19; viability, siRNA alone = 0.948
MAP2K4 | robust z-score, siRNA alone = 0.539; viability, siRNA alone = 1
LATS1 | robust z-score, siRNA alone = -0.177; viability, siRNA alone = 0.949
ERBB4 | robust z-score, siRNA alone = 0.539; viability, siRNA alone = 1
ALK | robust z-score, siRNA alone = 0.539; viability, siRNA alone = 1
